Experimental data from PubChem BioAssay (EPA / NIEHS).
“And” between values parts separate entries of the source, which are not always exact repeats. Equal entries are not always repeated. The inconclusive results got no clear call from the source; some entries with a clear call stand among them for comparison. For some assays here: Potencies of inconclusive entries are doubtful fits and often do not repeat. The source holds several records for some structures; these can differ, active in one and inactive in another. The source made the active and inactive calls. How the source made its calls: active means hit-call score of the fitted dose curve at least 0.9, where 1 is the maximum; inconclusive means response in the unintended direction; inactive means score below 0.9.

Sequences of proteins named here, by UniProt entry; tags and fusion partners are left off. A change or cut given only in a name is not applied to a line headed by its entry.
UniProt P03372, whole entry, looked up: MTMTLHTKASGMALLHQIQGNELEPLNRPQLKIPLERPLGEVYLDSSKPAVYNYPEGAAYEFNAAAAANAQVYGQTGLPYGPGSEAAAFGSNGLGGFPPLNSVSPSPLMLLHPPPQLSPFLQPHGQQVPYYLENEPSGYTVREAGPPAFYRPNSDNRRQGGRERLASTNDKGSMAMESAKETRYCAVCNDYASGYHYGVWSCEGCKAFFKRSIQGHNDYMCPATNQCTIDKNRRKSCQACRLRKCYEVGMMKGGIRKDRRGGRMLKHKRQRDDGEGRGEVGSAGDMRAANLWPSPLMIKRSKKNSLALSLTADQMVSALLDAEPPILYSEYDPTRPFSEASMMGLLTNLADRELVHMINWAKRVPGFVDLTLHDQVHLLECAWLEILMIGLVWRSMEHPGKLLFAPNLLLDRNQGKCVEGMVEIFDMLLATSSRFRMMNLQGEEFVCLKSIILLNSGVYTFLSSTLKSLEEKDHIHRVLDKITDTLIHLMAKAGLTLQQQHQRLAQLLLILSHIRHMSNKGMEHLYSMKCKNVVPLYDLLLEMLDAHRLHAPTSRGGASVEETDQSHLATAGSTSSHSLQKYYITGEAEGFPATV
UniProt Q96RI1: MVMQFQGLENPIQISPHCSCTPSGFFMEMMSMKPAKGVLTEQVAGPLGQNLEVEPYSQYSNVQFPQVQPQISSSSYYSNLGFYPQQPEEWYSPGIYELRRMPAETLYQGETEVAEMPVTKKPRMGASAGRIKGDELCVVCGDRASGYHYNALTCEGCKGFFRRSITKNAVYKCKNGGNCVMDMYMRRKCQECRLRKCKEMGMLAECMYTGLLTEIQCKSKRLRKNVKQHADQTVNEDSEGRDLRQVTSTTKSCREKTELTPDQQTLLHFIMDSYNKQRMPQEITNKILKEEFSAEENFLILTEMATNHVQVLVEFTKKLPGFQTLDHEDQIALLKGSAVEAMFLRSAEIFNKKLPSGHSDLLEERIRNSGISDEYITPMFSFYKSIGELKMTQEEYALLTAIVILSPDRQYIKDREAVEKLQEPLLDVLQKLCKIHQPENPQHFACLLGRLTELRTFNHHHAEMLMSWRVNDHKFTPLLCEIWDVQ
UniProt O75469: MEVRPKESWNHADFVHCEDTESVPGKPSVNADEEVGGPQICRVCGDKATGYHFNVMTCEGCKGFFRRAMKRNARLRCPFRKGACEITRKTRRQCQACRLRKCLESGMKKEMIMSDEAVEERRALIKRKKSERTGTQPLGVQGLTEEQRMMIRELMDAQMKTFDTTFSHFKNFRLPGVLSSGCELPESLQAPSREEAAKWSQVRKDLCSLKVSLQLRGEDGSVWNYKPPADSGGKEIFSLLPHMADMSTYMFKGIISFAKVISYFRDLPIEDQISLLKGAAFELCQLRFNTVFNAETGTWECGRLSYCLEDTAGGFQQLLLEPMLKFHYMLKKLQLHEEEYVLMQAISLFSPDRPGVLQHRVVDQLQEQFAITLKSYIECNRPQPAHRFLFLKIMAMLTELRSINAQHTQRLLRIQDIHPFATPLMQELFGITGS
UniProt P37231: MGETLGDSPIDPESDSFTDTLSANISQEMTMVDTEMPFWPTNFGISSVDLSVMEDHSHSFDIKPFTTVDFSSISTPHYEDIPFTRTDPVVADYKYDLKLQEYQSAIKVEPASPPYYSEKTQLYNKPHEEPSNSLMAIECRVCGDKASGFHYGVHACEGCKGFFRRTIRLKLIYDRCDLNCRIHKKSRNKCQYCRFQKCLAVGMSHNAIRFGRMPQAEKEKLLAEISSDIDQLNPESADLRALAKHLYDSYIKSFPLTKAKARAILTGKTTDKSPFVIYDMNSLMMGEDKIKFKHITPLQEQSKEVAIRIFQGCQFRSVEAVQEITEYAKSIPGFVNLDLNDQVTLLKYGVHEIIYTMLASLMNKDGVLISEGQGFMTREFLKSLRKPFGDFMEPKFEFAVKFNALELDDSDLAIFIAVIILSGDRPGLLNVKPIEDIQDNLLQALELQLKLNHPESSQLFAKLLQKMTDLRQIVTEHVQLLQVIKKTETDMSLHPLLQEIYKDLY
UniProt P10827: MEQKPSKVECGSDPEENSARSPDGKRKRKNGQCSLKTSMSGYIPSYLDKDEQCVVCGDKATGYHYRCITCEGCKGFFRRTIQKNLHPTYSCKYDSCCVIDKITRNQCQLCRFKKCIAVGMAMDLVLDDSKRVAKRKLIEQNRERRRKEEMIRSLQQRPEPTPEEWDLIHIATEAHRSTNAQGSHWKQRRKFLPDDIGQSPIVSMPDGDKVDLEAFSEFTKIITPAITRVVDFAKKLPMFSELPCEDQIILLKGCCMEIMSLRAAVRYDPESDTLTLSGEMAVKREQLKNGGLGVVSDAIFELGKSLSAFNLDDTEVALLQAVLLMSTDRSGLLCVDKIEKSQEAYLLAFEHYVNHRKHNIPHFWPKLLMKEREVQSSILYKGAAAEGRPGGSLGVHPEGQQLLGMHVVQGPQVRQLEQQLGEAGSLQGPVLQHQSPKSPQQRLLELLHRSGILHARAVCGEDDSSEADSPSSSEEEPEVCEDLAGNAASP
UniProt Q60492, whole entry, looked up: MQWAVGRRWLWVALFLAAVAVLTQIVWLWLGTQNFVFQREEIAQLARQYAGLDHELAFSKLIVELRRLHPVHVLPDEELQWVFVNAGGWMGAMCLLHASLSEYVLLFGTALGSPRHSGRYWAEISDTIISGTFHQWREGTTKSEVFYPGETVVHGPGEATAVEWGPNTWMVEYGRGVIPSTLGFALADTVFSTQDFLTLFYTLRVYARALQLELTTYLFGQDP
UniProt P15207: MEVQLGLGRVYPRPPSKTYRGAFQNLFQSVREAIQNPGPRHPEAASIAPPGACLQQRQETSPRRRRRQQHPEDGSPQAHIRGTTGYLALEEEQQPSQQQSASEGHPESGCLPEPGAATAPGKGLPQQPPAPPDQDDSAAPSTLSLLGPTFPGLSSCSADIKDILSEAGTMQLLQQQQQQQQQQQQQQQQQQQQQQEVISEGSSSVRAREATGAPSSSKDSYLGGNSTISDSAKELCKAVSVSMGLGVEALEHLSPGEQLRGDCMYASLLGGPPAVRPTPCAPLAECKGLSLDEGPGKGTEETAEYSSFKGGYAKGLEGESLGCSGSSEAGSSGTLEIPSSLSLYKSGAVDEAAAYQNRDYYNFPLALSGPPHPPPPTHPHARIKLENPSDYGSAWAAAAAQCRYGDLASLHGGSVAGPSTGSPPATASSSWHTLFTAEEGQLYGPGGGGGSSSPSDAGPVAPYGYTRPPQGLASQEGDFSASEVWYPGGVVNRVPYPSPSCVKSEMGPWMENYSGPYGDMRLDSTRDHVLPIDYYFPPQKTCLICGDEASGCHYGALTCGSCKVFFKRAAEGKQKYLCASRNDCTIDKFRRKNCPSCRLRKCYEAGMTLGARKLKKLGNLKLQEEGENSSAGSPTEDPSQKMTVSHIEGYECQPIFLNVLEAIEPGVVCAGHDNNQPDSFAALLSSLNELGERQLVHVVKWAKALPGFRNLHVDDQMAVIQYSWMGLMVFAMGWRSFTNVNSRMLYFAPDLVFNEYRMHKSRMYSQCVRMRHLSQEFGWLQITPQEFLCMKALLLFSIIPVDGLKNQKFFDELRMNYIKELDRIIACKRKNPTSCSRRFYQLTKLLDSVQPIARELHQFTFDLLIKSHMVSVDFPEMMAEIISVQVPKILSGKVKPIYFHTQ
UniProt P10275: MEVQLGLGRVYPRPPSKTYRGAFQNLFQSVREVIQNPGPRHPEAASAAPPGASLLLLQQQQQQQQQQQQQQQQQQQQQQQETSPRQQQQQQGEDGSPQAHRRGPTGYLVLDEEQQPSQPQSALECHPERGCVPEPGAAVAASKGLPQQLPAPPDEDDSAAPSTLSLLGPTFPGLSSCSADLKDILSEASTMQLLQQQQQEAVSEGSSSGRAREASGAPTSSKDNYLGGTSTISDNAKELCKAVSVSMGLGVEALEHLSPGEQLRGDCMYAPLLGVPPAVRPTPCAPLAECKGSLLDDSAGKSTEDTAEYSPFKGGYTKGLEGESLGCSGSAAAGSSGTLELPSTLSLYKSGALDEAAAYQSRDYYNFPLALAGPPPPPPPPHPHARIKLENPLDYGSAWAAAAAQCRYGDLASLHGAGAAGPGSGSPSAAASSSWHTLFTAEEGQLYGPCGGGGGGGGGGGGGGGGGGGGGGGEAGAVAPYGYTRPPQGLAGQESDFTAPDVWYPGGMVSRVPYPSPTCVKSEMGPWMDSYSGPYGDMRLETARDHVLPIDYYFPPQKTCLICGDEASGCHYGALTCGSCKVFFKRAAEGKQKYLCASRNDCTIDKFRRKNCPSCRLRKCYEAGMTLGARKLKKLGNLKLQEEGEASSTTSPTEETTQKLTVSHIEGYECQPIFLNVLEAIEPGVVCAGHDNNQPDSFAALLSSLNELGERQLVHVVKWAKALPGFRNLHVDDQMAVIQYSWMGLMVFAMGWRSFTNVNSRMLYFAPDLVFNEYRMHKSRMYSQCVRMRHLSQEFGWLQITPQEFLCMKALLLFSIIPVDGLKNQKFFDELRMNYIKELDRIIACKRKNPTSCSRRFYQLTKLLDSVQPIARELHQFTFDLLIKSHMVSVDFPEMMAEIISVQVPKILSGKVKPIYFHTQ
UniProt P23975, whole entry, looked up: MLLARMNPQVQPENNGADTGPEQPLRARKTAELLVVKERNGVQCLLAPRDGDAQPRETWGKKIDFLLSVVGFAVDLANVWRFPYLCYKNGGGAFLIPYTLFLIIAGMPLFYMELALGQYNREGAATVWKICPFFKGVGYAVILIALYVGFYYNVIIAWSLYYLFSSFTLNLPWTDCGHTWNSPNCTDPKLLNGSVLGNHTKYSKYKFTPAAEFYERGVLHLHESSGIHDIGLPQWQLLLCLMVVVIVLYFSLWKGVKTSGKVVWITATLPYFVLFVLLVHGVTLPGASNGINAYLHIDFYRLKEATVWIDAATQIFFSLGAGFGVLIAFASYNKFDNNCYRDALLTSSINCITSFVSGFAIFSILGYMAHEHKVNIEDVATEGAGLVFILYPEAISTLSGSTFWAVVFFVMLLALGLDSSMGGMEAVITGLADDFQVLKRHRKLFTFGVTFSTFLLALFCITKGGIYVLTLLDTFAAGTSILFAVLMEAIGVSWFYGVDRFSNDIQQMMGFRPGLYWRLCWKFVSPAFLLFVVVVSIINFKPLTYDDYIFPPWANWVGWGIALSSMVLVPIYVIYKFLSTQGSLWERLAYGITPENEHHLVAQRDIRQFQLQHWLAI
UniProt P31645, whole entry, looked up: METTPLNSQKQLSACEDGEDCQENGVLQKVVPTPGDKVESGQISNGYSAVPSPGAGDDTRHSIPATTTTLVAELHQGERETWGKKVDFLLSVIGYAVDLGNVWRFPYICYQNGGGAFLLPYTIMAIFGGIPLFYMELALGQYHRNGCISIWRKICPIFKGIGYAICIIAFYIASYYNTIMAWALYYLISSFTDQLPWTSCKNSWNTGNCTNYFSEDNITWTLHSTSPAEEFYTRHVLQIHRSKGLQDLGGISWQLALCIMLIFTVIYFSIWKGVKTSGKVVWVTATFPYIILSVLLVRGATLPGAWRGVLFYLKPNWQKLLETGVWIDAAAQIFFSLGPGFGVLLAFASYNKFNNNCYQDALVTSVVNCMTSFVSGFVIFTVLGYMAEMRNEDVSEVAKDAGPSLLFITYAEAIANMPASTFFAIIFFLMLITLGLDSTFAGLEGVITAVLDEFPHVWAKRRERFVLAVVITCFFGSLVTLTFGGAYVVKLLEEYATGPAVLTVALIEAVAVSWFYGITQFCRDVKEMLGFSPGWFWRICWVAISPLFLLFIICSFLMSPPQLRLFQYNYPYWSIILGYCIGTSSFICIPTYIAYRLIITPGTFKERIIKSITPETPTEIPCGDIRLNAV
UniProt Q01959, whole entry, looked up: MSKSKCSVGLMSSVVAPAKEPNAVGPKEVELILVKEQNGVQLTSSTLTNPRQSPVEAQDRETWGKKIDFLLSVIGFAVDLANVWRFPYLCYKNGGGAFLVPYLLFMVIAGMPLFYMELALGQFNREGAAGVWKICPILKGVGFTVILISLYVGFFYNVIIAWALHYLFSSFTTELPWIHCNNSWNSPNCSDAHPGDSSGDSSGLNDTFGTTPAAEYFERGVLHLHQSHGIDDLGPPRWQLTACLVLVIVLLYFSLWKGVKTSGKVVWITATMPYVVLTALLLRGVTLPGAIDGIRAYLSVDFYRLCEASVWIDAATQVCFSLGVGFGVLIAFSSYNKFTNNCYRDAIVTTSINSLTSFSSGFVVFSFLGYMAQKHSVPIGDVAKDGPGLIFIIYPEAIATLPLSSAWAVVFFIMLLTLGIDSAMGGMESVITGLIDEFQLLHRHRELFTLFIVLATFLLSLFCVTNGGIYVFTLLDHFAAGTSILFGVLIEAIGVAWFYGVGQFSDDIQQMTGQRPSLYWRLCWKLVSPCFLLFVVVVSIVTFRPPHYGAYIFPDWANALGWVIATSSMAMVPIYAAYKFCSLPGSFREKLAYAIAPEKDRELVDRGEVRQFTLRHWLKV

Key:
[1] = molecular target: Retinoic acid receptor alpha (Homo sapiens) (UniProt P10276); assay: NVS_NR_hRARa_Agonist: NovaScreen (NVS) Nuclear Receptor Binding Assay for human Retinoic Acid Alpha Receptor Agonism (RAR) (AID 2283361)
In short: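 TR-FRET signal, 2 h post-dosing; cell-free extracted protein; DMSO = baseline, positive fitting direction; 25 uM single-point duplicate, then concentration series for actives.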

[2] = molecular target: Estrogen receptor (Homo sapiens) (UniProt P03372); assay: OT_ERa_GFPERaERE_0120: Odyssey Thera (OT) 2-hour HeLa Transcription Induction Assay for Estrogen Receptor (AID 2283382)
In short: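 Two-hour compound treatment of HeLa cells preceded microscopy imaging of an inducible fluorescent reporter. Image-based quantification gave one endpoint, analysed for signal increase relative to DMSO controls.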

[3] = molecular target: Bile acid receptor (Homo sapiens) (UniProt Q96RI1); assay: OT_FXR_FXRSRC1_1440: Odyssey Thera (OT) 24-hour HEK293T Protein-Complementation Assay for Farnesoid X receptor/SRC-1 Co-activator (AID 2283384)
In short: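 Single endpoint, analysed for increased fluorescence against DMSO controls. HEK293T cells carrying FXR and SRC-1 linked to complementary reporter halves were exposed to chemicals for 24 h before reading.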

[4] = molecular target: Nuclear receptor subfamily 1 group I member 2 (Homo sapiens) (UniProt O75469); assay: NVS_NR_hPXR: NovaScreen (NVS) Nuclear Receptor Binding Assay for human Pregnane X Receptor (PXR) (AID 2283365);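 further: a drop in FRET signal versus DMSO baseline means the compound binds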
In short: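 Cell-free TR-FRET binding assay with extracted human PXR protein, read 2 h after dosing. Primary screen run in duplicate at 25 uM, actives followed in concentration series; loss of signal fitted against DMSO baseline.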

[5] = molecular target: Peroxisome proliferator-activated receptor gamma (Homo sapiens) (UniProt P37231); assay: NVS_NR_hPPARg: NovaScreen (NVS) Nuclear Receptor Binding Assay for human Peroxisome Proliferator-activated Receptor gamma (PPARg) (AID 2283370)
In short: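 Cell-free fluorescence polarization binding to human PPARg protein, read 2 h after dosing. Primary screen in duplicate at 25 uM, actives followed in concentration series; loss of signal relative to DMSO scored.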

[6] = molecular target: Bile acid receptor (Homo sapiens) (UniProt Q96RI1); assay: OT_FXR_FXRSRC1_0480: Odyssey Thera (OT) 8-hour HEK293T Protein-Complementation Assay for Farnesoid X receptor/SRC-1 Co-activator (AID 2283383)
In short: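 Readings were taken 8 h after dosing HEK293T cells in a split-reporter complementation format pairing FXR with SRC-1. Increased fluorescence relative to DMSO-treated wells defined activity.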

[7] = molecular target: mouse Estrogen Receptor alpha (Era), Esr1 (gene 13982) (UniProt P19785); assay: NVS_NR_mERa: NovaScreen (NVS) Nuclear Receptor Binding Assay for mouse Estrogen Receptor alpha (Era) (AID 2283378);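 further: hit means loss of bound radioligand signal relative to DMSO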
In short: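 Cell-free radioligand competitive displacement binding, read by filter-based scintillation counting 18 h after dosing. Primary screen run in duplicate at 25 uM, actives retested in concentration series; loss of signal versus DMSO.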

[8] = molecular target: human Thyroid Receptor Alpha (TRa), THRA (gene 7067) (UniProt P10827); assay: NVS_NR_hTRa_Antagonist: NovaScreen (NVS) Nuclear Receptor Binding Assay for human Thyroid Receptor Alpha Antagonism (TRa) (AID 2283362);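 further: activity is loss of signal relative to DMSO baseline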
In short: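 Cell-free AlphaLISA chemiluminescent binding read 1 h after dosing, antagonist mode; signal loss versus DMSO baseline. Primary screen in duplicate at 25 uM, then concentration series for actives.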

[9] = molecular target: guinea pig Sigma Receptor, Non-selective Binding, SIGMAR1 (gene 100135589) (UniProt Q60492); assay: NVS_OR_gSIGMA_NonSelective: NovaScreen (NVS) Nuclear Receptor Binding Assay for guinea pig Sigma Receptor, Non-selective Binding (AID 2283367)
In short: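 Membranes from guinea pig brain incubated with radioligand and test chemical for 1 h, then filtered and scintillation-counted. Duplicate primary testing at 25 uM, with concentration-series follow-up for actives.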

[10] = molecular target: rat Androgen Receptor (AR), Ar (gene 24208) (UniProt P15207); assay: NVS_NR_rAR: NovaScreen (NVS) Nuclear Receptor Binding Assay for rat Androgen Receptor (AR) (AID 2283366)
In short: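 Actives from a duplicate single-concentration (25 uM) primary run went on to concentration series. Displacement of radioligand was counted by filtration and scintillation, 18 h post-dose, using prostate extracts from testosterone-pretreated rats, with DMSO as baseline.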

[11] = molecular target: Agonist Androgen Response Element (ARE), AR (gene 367) (UniProt P10275); assay: OT_AR_ARELUC_AG_1440: Odyssey Thera (OT) 24-hour CHO-K1 Luciferase Assay for Agonist Androgen Response Element (ARE) (AID 2283379)
In short: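 Gain-of-signal reporter endpoint: cells (CHO-K1, hamster) are treated 24 h, luciferin/ATP reagent added, and luminescence compared with DMSO baseline.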

[12] = molecular target: Glucocorticoid receptor (Homo sapiens) (UniProt P04150); assay: NVS_NR_hGR: NovaScreen (NVS) Nuclear Receptor Binding Assay for human Glucocorticoid Receptor (GR) (AID 2283363);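 further: activity is loss of specific radioligand binding signal relative to DMSO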
In short: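 Filter scintillation readout of tritiated/iodinated radioligand displaced by test chemical; cell-free extracted protein; 16 h. DMSO = negative control/baseline. Duplicate single-point 25 uM screen, then concentration-response on actives.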

[13] = molecular target: rat Serotonin Transporter (SERT), Slc6a4 (gene 25553) (UniProt P31652); assay: NVS_TR_rSERT: NovaScreen (NVS) Transporter Assay for rat Serotonin Transporter (SERT) (AID 2283375)
In short: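 Rat forebrain membranes; radioligand displacement at SERT read by filter-based scintillation counting, 1 h after dosing. Screened in duplicate at 25 uM, actives then run in concentration series; loss of signal versus DMSO baseline.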

[14] = molecular target: human Norepinephrine Transporter (NET), SLC6A2 (gene 6530) (UniProt P23975); assay: NVS_TR_hNET: NovaScreen (NVS) Transporter Assay for human Norepinephrine Transporter (NET) (AID 2283377);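 further: cell-free membrane protein extracted from CHO cells expressing human NET; displacement of radioligand from human NET seen as loss of scintillation signal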
In short: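 CHO cell extracts expressing the transporter; tritiated or iodinated tracer displaced competitively; filtration plus scintillation readout at 1 h. Single-point duplicates at 25 uM, concentration series for follow-up; activity = signal drop relative to DMSO.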

[15] = tested on: rat Norepinephrine Transporter (NET), gene 83511; assay: NVS_TR_rNET: NovaScreen (NVS) Transporter Assay for rat Norepinephrine Transporter (NET) (AID 2283373)
In short: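 Competitive radioligand displacement at the rat NET using forebrain membrane preparations, 1 h incubation, filter-based scintillation readout. Primary testing in duplicate at a single 25 uM concentration; confirmed actives retested across concentrations.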

[16] = molecular target: human Serotonin Transporter (SERT), SLC6A4 (gene 6532) (UniProt P31645); assay: NVS_TR_hSERT: NovaScreen (NVS) Transporter Assay for human Serotonin Transporter (SERT) (AID 2283372)
In short: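 Human platelet membrane preparation; displacement of radioligand from serotonin transporter measured after 1 h by filtration and scintillation counting. Single 25 uM duplicate screen, then concentration series for actives, with DMSO as negative baseline.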

[17] = molecular target: human Dopamine Transporter (DAT), SLC6A3 (gene 6531) (UniProt Q01959); assay: NVS_TR_hDAT: NovaScreen (NVS) Transporter Assay for human Dopamine Transporter (DAT) (AID 2283374);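 further: activity means loss of bound radioligand signal relative to DMSO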
In short: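 hDAT membranes + tritiated/iodinated radioligand, competitive displacement; 1 h; filter scintillation readout. Single conc 25 uM (duplicate), then conc-response for actives. DMSO = negative control.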

CCCC(=O)OCCC(C)C
AC50 [1]: inconclusive: 6.14 µM | AC50 [2]: inconclusive: 50 µM | outcome [3]: inactive

CC(C)CCCCCCOC(=O)CCCCC(=O)OCCCCCCC(C)C
outcome [1]: inactive | AC50 [4]: inconclusive: 25 µM | AC50 [5]: inconclusive: 4.96 µM | outcome [6]: inactive | AC50 [3]: inconclusive: 50 µM

N#Cc1ccc(C2CCCc3cncn32)cc1 (stereo not drawn)
AC50 [1]: inconclusive: 0.173 µM | outcome [7]: inactive

CCCCCCC1CCC(=O)O1 (stereo not drawn)
AC50 [1]: inconclusive: 25.5 µM

C=C1CC[C@H]2C[C@@H]1C2(C)C
outcome [8]: inactive

CCCCCCCCCCCCCC[P+](CCCC)(CCCC)CCCC
AC50 [1]: active: 3.23 µM | outcome [7]: inactive | AC50 [6]: inconclusive: 12.1 µM | AC50 [3]: inconclusive: 12.1 µM

CCOC(=O)C(C)Oc1ccc(Oc2cnc3cc(Cl)ccc3n2)cc1 (stereo not drawn)
AC50 [1]: inconclusive: 0.0228 µM | AC50 [9]: inconclusive: 72.9 nM | AC50 [6]: active: 43 µM

Cc1nccn1-c1ccc(Sc2cccc(C3(C(N)=O)CCOCC3)c2)cc1
AC50 [1]: inconclusive: 25 µM | AC50 [6]: active: 4.07 µM

Cc1cc2c(cc1C(F)(F)F)N(C(=O)Nc1ccc(Oc3cccnc3C)nc1)CC2
AC50 [1]: inconclusive: 23 µM | AC50 [5]: inconclusive: 23 µM | AC50 [7]: inconclusive: 37.2 µM

CCC(=C(c1ccc(O)cc1)c1ccc(OCCN(C)C)cc1)c1ccccc1
outcome [8]: inactive | AC50 [4]: active: 1.85 µM | AC50 [10]: inconclusive: 32.2 nM | AC50 [5]: inconclusive: 0.139 µM | AC50 [11]: inconclusive: 14.4 µM | AC50 [6]: inconclusive: 0.5 µM | outcome [3]: inactive

O=C(c1ccccc1)C1CCC1
AC50 [4]: inconclusive: 0.00229 µM

Cc1cc(C(=C2C=CC(=Nc3ccc(S(=O)(=O)O)cc3)C=C2)c2ccc(Nc3ccc(S(=O)(=O)O)cc3)cc2)cc(S(=O)(=O)O)c1N
outcome [8]: inactive | AC50 [4]: active: 0.574 µM | outcome [5]: inactive

O=C(O)Cn1c(=O)n(Cc2ccc(Br)cc2F)c(=O)c2ccc(Cl)cc21
AC50 [12]: inconclusive: 5.85 µM | AC50 [5]: active: 42.4 µM | AC50 [13]: inconclusive: 25 µM

COC(=O)c1ccccc1C(=O)O
AC50 [8]: inconclusive: 2 µM | outcome [5]: inactive

CCCCCCCC(=O)OC
AC50 [4]: inconclusive: 0.148 µM

CCCCCCC1(C)CCC(=O)O1 (stereo not drawn)
AC50 [4]: inconclusive: 4.96 µM

CC(=O)NC1(c2cccc(F)c2)CCN(CC[C@@]2(c3ccc(Cl)c(Cl)c3)CN(c3ccccc3)C(=O)CO2)CC1
AC50 [8]: active: 20.8 µM | AC50 [5]: inconclusive: 20.8 µM

O=S1(=O)OC(c2ccc(O)cc2)(c2ccc(O)cc2)c2ccccc21
AC50 [8]: active: 11 µM | outcome [4]: inactive | AC50 [7]: active: 20.1 µM

CC(C)=CCCC(C)=CC=O
AC50 [12]: inconclusive: 25 µM | AC50 [5]: inconclusive: 0.0289 µM

CC1(C)C(C=C(Cl)Cl)C1C(=O)OCc1cccc(Oc2ccccc2)c1 (stereo not drawn)
AC50 [8]: inconclusive: 25 µM | AC50 [14]: inconclusive: 25 µM

CCCCOC(=O)c1ccc(O)cc1
AC50 [4]: inconclusive: 929 nM and inconclusive: 266 nM

O=C(O)c1cccc(Oc2ccccc2)c1
AC50 [4]: inconclusive: 0.0237 µM

CC[C@H](C)C(=O)O[C@H]1C[C@@H](C)C=C2C=C[C@H](C)[C@H](CC[C@@H]3C[C@@H](O)CC(=O)O3)[C@H]21
AC50 [8]: inconclusive: 45.7 µM | AC50 [5]: inconclusive: 25 µM

CCCCC(CC)C(=O)OCCOCCOCCOC(=O)C(CC)CCCC (stereo not drawn)
AC50 [12]: inconclusive: 25 µM | outcome [7]: inactive

OC(CCl)CCl
AC50 [8]: inconclusive: 12.1 µM

O=Nc1ccc(Nc2ccccc2)cc1
AC50 [8]: active: 17.6 µM | AC50 [7]: active: 46.4 µM | outcome [6]: inactive | AC50 [3]: inconclusive: 22 µM

CCCCCCCOC(=O)CCC
AC50 [4]: inconclusive: 25 µM

CC(C)(c1ccc(O)cc1)c1ccc(O)cc1
AC50 [8]: inconclusive: 0.191 µM | AC50 [4]: inconclusive: 25 µM | AC50 [10]: inconclusive: 51 nM | AC50 [5]: inconclusive: 79.1 nM and inconclusive: 25.4 µM | outcome [15]: inactive | outcome [7]: inactive | AC50 [11]: inconclusive: 51 µM

c1ccc(C(O[C@@H]2CCCN(CCc3ccc4c(c3)OCO4)C2)c2ccccc2)cc1
outcome [8]: inactive | AC50 [5]: inconclusive: 0.32 µM | outcome [16]: inactive | AC50 [7]: active: 25 µM

O=C(O)Cc1cc(I)c(Oc2cc(I)c(O)c(I)c2)c(I)c1
AC50 [8]: inconclusive: 0.00153 µM | AC50 [4]: inconclusive: 0.145 µM | AC50 [5]: active: 43.8 nM and active: 1.53 nM and active: 9.65 µM | AC50 [15]: inconclusive: 16.8 µM | AC50 [17]: inconclusive: 16.8 µM | outcome [7]: inactive

CCCCc1ccc(Cl)cc1
outcome [4]: inactive

COc1ccc(OC(F)(F)F)cc1CN[C@H]1CCCN[C@H]1c1ccccc1
AC50 [4]: active: 7.41 µM

C=C[C@@]1(C)CC(=O)[C@]2(O)[C@@]3(C)[C@@H](O)CCC(C)(C)[C@@H]3[C@H](O)[C@H](OC(C)=O)[C@@]2(C)O1
AC50 [4]: inconclusive: 25 µM
